Source: the supplement of paper PMC3334620
In all, about 33,000 sequences were measured (“E-score (-0.5 to 0.5)”: median about -0.0059, highest 2% from about 0.26 on). The list shows a part of the results.

Each sequence was assayed against T1, Cin5 (UniProt P40917) (assay: PBM E-score (8-mer binding enrichment) (E-score (-0.5 to 0.5)); higher = stronger / more preferred TF binding). Conditions: protein concentration: 100 nM; construct: GST-full length.
T1 sequence: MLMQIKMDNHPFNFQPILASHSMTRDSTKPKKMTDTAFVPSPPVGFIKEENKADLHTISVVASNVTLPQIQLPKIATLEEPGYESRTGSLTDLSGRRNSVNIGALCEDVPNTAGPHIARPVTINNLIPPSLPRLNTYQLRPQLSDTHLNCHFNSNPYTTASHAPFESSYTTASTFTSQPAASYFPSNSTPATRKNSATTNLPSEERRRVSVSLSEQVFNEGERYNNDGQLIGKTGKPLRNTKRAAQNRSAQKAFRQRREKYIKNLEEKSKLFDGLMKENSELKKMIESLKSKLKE
How it was run: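 Masliner-normalised scans of fluorescent anti-GST signal were the basis for scoring. That signal came from GST-tagged yeast transcription factors applied at about 100-200 nM to double-stranded universal all-10-mer Agilent arrays on fresh or once-stripped slides. Each ungapped eight-base word, pooled with its reverse complement, received an E-score from the Universal PBM Analysis Suite.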

Sequence	PBM E-score
GTCATGTA	-0.0945
GATTGGCA	-0.0885
CGTAGGCC	-0.0722
GCCCTCGA	-0.22
AGCGTATC	-0.129
CTACCCTC	-0.0575
ACCAGCAA	0.11
ACGAGCCT	-0.198
AGCTAGAC	-0.135
ACTCCGGC	0.103
GATGCTAA	0.147
AAGCATAA	0.0942
GACAACTA	0.157
ATCGTAGC	0.0582
AAAGAGAC	0.0341
ATGCATCG	0.098
GAATGTTA	0.118
AGCGTCCG	-0.102
AGTGTGAA	0.202
AATTTAGG	0.168
ACGGCGAC	-0.0622
CGGATTTA	0.136

Sequence	PBM E-score
CCAGCAAC	-0.0338
AGAGGCAT	-0.0753
AGACATAC	0.0227
CATTCGCG	0.127
CGACGGGC	-0.112
CTAACGGC	-0.0688
CAAGCATG	-0.0243
CAATTCAA	0.0846
ACCTTAAT	0.11
AATCGGGC	-0.027
GGATTGCC	-0.111
ATTTAAAT	0.21
ACACGAGC	-0.0543
ATGACTCG	-0.167
AACTTAGC	-0.0121
ACAATCCA	0.209
AGATAAAG	0.0515
AGTGTTTA	0.178
CAGCTGCC	-0.0182
AGCCAAGA	0.0653
ATTTCGGC	0.0403
CCCTTTGC	0.0273

Sequence	PBM E-score
AGTGACGG	0.0763
ACTTTGCC	0.0713
AGAGAAAA	0.0608
GTATATAA	0.222
ATTGGACG	0.0343
GTCAGTGA	-0.0149
TCCGATCA	0.112
ACATATAT	0.21
ACGACGGC	-0.108
CACTACGG	0.00482
ATGGATTC	-0.0177
AACCCCGG	-0.176
ACCCCTGA	0.00839
ACTCTGTG	0.0463
CCACATCA	0.147
AAGGTCAT	-0.0122
AAAAAAGT	0.0794
CTGTAACA	-0.0859
CGGTGCCC	-0.259
AATTGAGT	0.205
CAATGTCA	0.136
ACTATCGG	0.0455

Sequence	PBM E-score
CTTCCGTA	0.192
TCACGGCA	0.09
CCGAGGCG	-0.154
TGGACTAA	0.0142
AGCAAAAA	0.0923
ACACACGT	-0.0545
ATCCAAGG	0.00453
GGATGACA	0.212
CTTAGTTA	0.139
ACAGTCGG	-0.0373
TAACACGA	0.117
AGTCCTAA	-0.212
CATTCCAC	0.0242
AACCATAG	-0.109
GGCAAGCA	-0.188
ACTGTGAC	0.106
CTGCTCAA	-0.156
GGCTTAGA	-0.133
AACTCCAG	-0.151
CTGGGACC	-0.316
CCGCGATC	0.051
GCGGAAGC	-0.177

Sequence	PBM E-score
AATAAGGA	-0.0468
ATTTAAAG	0.0881
AGTTGGCA	0.00307
ACTTCACT	0.128
GCAATGAA	0.208
GTGATAGA	-0.026
AGGTCAGG	-0.176
ATCTGGAC	-0.276
GGATTTCA	0.155
ATTTTAGC	-0.00206
TATGGGCA	-0.063
CGCGTGTC	0.0724
TGTTTAAA	0.126
GCGGCCCC	-0.319
GAAAAGCC	-0.137
ATCATACA	0.205
GAACAAGC	0.0364
ATCATTAG	0.136
ACCTGGTA	-0.0843
ATTAGGTG	0.131
ACAGCTAA	-0.122

Reprinted at random: three records from the list, in no set order.
Sequence	PBM E-score
ACTTCACT	0.128
GAACAAGC	0.0364
GCAATGAA	0.208
